# This is one part of the list.
# How the values were obtained:
# Assay in all cases: glycan array binding signal (z-score within array); higher = stronger binding
# Details in all cases: glycan notation: IUPAC condensed, linker removed
# [1] = target: Neu5Ac(a2-3)Gal(b1-4)GlcNAc(b1-3)Gal
# Outline: (§1)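 From the Consortium for Functional Glycomics database, 3228 arrays were curated, keeping only those whose protein sequence was available. Binding is given as a within-array Z-score averaged across arrays sharing a protein sequence and across linkers. Negative Z-scores can be read as non-binding.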
# [2] = target: Neu5Ac(a2-3)Gal(b1-4)GlcNAc(b1-3)Gal(b1-3)GlcNAc
# Outline: as §1
# [3] = target: Neu5Ac(a2-3)Gal(b1-4)GlcNAc(b1-3)Gal(b1-4)GlcNAc
# Outline: as §1
# [4] = target: Neu5Ac(a2-3)Gal(b1-4)GlcNAc(b1-3)Gal(b1-4)GlcNAc(b1-3)Gal(b1-4)GlcNAc
# Outline: as §1
# [5] = target: Neu5Ac(a2-3)Gal(b1-4)GlcNAc(b1-3)Gal(b1-4)[Fuc(a1-3)]GlcNAc
# Outline: as §1
# [6] = target: Neu5Ac(a2-3)Gal(b1-4)GlcNAc(b1-3)GalNAc
# Outline: as §1
# [7] = target: Neu5Ac(a2-3)Gal(b1-4)GlcNAc(b1-6)[Gal(b1-3)]GalNAc
# Outline: as §1
# [8] = target: Neu5Ac(a2-3)Gal(b1-4)GlcNAc(b1-6)[Neu5Ac(a2-3)Gal(b1-3)]GalNAc
# Outline: as §1
# [9] = target: Neu5Ac(a2-3)Gal(b1-4)GlcNAc6S
# Outline: as §1
# [10] = target: Neu5Ac(a2-3)Gal(b1-4)[Fuc(a1-3)]GlcNAc
# Outline: as §1
# [11] = target: Neu5Ac(a2-3)Gal(b1-4)[Fuc(a1-3)]GlcNAc(b1-3)Gal
# Outline: as §1
# [12] = target: Neu5Ac(a2-3)Gal(b1-4)[Fuc(a1-3)]GlcNAc(b1-3)Gal(b1-4)GlcNAc
# Outline: as §1
# [13] = target: Neu5Ac(a2-3)Gal(b1-4)[Fuc(a1-3)]GlcNAc(b1-3)Gal(b1-4)[Fuc(a1-3)]GlcNAc(b1-3)Gal(b1-4)[Fuc(a1-3)]GlcNAc
# Outline: as §1
# [14] = target: Neu5Ac(a2-3)Gal(b1-4)[Fuc(a1-3)]GlcNAc(b1-3)GalNAc
# Outline: as §1
# [15] = target: Neu5Ac(a2-3)Gal(b1-4)[Fuc(a1-3)]GlcNAc(b1-6)[Gal(b1-3)]GalNAc
# Outline: as §1
# [16] = target: Neu5Ac(a2-3)Gal(b1-4)[Fuc(a1-3)]GlcNAc6S
# Outline: as §1
# [17] = target: Neu5Ac(a2-3)Gal6S(b1-4)GlcNAc
# Outline: as §1
# [18] = target: Neu5Ac(a2-3)Gal6S(b1-4)[Fuc(a1-3)]GlcNAc
# Outline: as §1
# Neu5Ac(a2-3)GalNAc = target: Neu5Ac(a2-3)GalNAc
# Outline: as §1
# [19] = target: Neu5Ac(a2-3)GalNAc(b1-4)GlcNAc
# Outline: as §1
# [20] = target: Neu5Ac(a2-3)[GalNAc(b1-4)]Gal(b1-4)Glc
# Outline: as §1
# [21] = target: Neu5Ac(a2-3)[GalNAc(b1-4)]Gal(b1-4)GlcNAc
# Outline: as §1
# [22] = target: Neu5Ac(a2-3)[GalNAc(b1-4)]Gal(b1-4)GlcNAc(b1-3)GalNAc
# Outline: as §1
# [23] = target: Neu5Ac(a2-3)[Neu5Ac(a2-6)]GalNAc
# Outline: as §1
# Neu5Ac(a2-6)Gal = target: Neu5Ac(a2-6)Gal
# Outline: as §1
# [24] = target: Neu5Ac(a2-6)Gal(b1-3)GlcNAc(b1-3)[Gal(b1-4)GlcNAc(b1-6)]Gal(b1-4)Glc
# Outline: as §1
# Neu5Ac(a2-6)Gal(b1-4)Glc = target: Neu5Ac(a2-6)Gal(b1-4)Glc
# Outline: as §1
# [25] = target: Neu5Ac(a2-6)Gal(b1-4)GlcNAc
# Outline: as §1
# [26] = target: Neu5Ac(a2-6)Gal(b1-4)GlcNAc(b1-2)Man(a1-3)Man(b1-4)GlcNAc(b1-4)GlcNAc
# Outline: as §1
# [27] = target: Neu5Ac(a2-6)Gal(b1-4)GlcNAc(b1-2)Man(a1-3)[Gal(b1-4)GlcNAc(b1-2)Man(a1-6)]Man(b1-4)GlcNAc(b1-4)GlcNAc
# Outline: as §1
# [28] = target: Neu5Ac(a2-6)Gal(b1-4)GlcNAc(b1-2)Man(a1-3)[GlcNAc(b1-2)Man(a1-6)]Man(b1-4)GlcNAc(b1-4)GlcNAc
# Outline: as §1
# [29] = target: Neu5Ac(a2-6)Gal(b1-4)GlcNAc(b1-2)Man(a1-3)[GlcNAc(b1-2)Man(b1-4)GlcNAc(b1-2)Man(a1-6)]Man(b1-4)GlcNAc(b1-4)GlcNAc
# Outline: as §1
# [30] = target: Neu5Ac(a2-6)Gal(b1-4)GlcNAc(b1-2)Man(a1-3)[Man(a1-6)]Man(b1-4)GlcNAc(b1-4)GlcNAc
# Outline: as §1
# [31] = target: Neu5Ac(a2-6)Gal(b1-4)GlcNAc(b1-2)Man(a1-3)[Neu5Ac(a2-6)Gal(b1-4)GlcNAc(b1-2)Man(a1-6)]Man(b1-4)GlcNAc(b1-4)GlcNAc
# Outline: as §1
# [32] = target: Neu5Ac(a2-6)Gal(b1-4)GlcNAc(b1-2)Man(a1-6)Man(b1-4)GlcNAc(b1-4)GlcNAc
# Outline: as §1
binder,measurement,setting,value
"Flo11 (Saccharomyces cerevisiae), P08640 (protein) MQRPFLLAYLVLSLLFNSALGFPTALVPRGSSEGTSCNSIVNGCPNLDFNWHMDQQNIMQYTLDVTSVSWVQDNTYQITIHVKGKENIDLKYLWSLKIIGVTGPKGTVQLYGYNENTYLIDNPTDFTATFEVYATQDVNSCQVWMPNFQIQFEYLQGSAAQYASSWQWGTTSFDLSTGCNNYDNQGHSQTDFPGFYWNIDCDNNCGGTKSSTTTSSTSESSTTTSSTSESSTTTSSTSESSTTTSSTSESSTSSSTTAPATPTTTSCTKEKPTPPTTTSCTKEKPTPPHHDTTPCTKKKTTTSKTCTKKTTTPVPTPSSSTTESSSAPVPTPSSSTTESSSAPVTSSTTESSSAPVPTPSSSTTESSSAPVTSSTTESSSAPVTSSTTESSSAPVPTPSSSTTESSSAPVTSSTTESSSAPVTSSTTESSSAPVTSSTTESSSAPVTSSTTESSSAPVPTPSSSTTESSSAPVTSSTTESSSAPVPTPSSSTTESSSAPVTSSTTESSSAPVPTPSSSTTESSSAPAPTPSSSTTESSSAPVTSSTTESSSAPVPTPSSSTTESSSTPVTSSTTESSSAPVPTPSSSTTESSSAPVPTPSSSTTESSSAPAPTPSSSTTESSSAPVTSSTTESSSAPVPTPSSSTTESSSAPVPTPSSSTTESSSAPVPTPSSSTTESSSAPVTSSTTESSSAPVTSSTTESSSAPVPTPSSSTTESSSAPVPTPSSSTTESSSAPVPTPSSSTTESSSAPVTSSTTESSSAPVPTPSSSTTESSSAPVPTPSSSTTESSSAPVPTPSSSTTESSVAPVPTPSSSSNITSSAPSSTPFSSSTESSSVPVPTPSSSTTESSSAPVSSSTTESSVAPVPTPSSSSNITSSAPSSIPFSSTTESFSTGTTVTPSSSKYPGSQTETSVSSTTETTIVPTKTTTSVTTPSTTTITTTVCSTGTNSAGETTSGCSPKTVTTTVPTTTTTSVTTSSTTTITTTVCSTGTNSAGETTSGCSPKTITTTVPCSTSPSETASESTTTSPTTPVTTVVSTTVVTTEYSTSTKPGGEITTTFVTKNIPTTYLTTIAPTPSVTTVTNFTPTTITTTVCSTGTNSAGETTSGCSPKTVTTTVPCSTGTGEYTTEATTLVTTAVTTTVVTTESSTGTNSAGKTTTGYTTKSVPTTYVTTLAPSAPVTPATNAVPTTITTTECSAATNAAGETTSVCSAKTIVSSASAGENTAPSATTPVTTAIPTTVITTESSVGTNSAGETTTGYTTKSIPTTYITTLIPGSNGAKNYETVATATNPISIKTTSQLATTASASSVAPVVTSPSLTGPLQSASGSAVATYSVPSISSTYQGAANIKVLGNFMWLLLALPVVF",glycan array binding signal (z-score),[1],0.004
same,glycan array binding signal (z-score),[2],0.266
same,glycan array binding signal (z-score),[3],-0.017
same,glycan array binding signal (z-score),[4],0.133
same,glycan array binding signal (z-score),[5],1.43
same,glycan array binding signal (z-score),[6],-0.424
same,glycan array binding signal (z-score),[7],-1.28
same,glycan array binding signal (z-score),[8],-0.861
same,glycan array binding signal (z-score),[9],0.179
same,glycan array binding signal (z-score),[10],-0.261
same,glycan array binding signal (z-score),[11],-1.26
same,glycan array binding signal (z-score),[12],2.91
same,glycan array binding signal (z-score),[13],0.568
same,glycan array binding signal (z-score),[14],3.06
same,glycan array binding signal (z-score),[15],0.861
same,glycan array binding signal (z-score),[16],-0.59
same,glycan array binding signal (z-score),[17],-0.672
same,glycan array binding signal (z-score),[18],1.29
same,glycan array binding signal (z-score),Neu5Ac(a2-3)GalNAc,0.965
same,glycan array binding signal (z-score),[19],-1.32
same,glycan array binding signal (z-score),[20],0.077
same,glycan array binding signal (z-score),[21],0.303
same,glycan array binding signal (z-score),[22],-0.803
same,glycan array binding signal (z-score),[23],0.271
same,glycan array binding signal (z-score),Neu5Ac(a2-6)Gal,0.154
same,glycan array binding signal (z-score),[24],-0.162
same,glycan array binding signal (z-score),Neu5Ac(a2-6)Gal(b1-4)Glc,0.508
same,glycan array binding signal (z-score),[25],0.108
same,glycan array binding signal (z-score),[26],0.843
same,glycan array binding signal (z-score),[27],-0.39
same,glycan array binding signal (z-score),[28],-0.888
same,glycan array binding signal (z-score),[29],-0.074
same,glycan array binding signal (z-score),[30],1.68
same,glycan array binding signal (z-score),[31],-0.137
same,glycan array binding signal (z-score),[32],-0.731

# Source: the supplement of paper PMC8728848
